Source: PubChem BioAssay AID652243 (Drosophila RNAi Screening Center, 2013)
In all, the deposit lists about 24,000 reagents; shown is an unselected part of those that have a named target and a result. Over the whole deposit, 246 (1%) got an active call. 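Plates not normalised; calls are printed but the firefly/Renilla ratio behind them is not deposited; fold cut for lowering reported inconsistently.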 Raw values are not corrected between plates. Names joined by + are all predicted targets of the reagent. Not stated in the record: the amount of reagent.

Screen: 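Fly regulators of androgen-dependent reporter output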 (primary screen)
Cells: Drosophila S2R+ cells
Reagents: long dsRNA against Drosophila genes
Timing: 72 h (48 h, then 24 h hormone)
Conditions: synthetic androgen R1881 at 10 nM for 24 h
Measured: 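Per-well raw luminescence of the androgen-driven firefly reporter and of the Renilla control, two replicates each, without normalisation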
Scale: firefly reporter light: higher = more light from androgen-responsive reporter; Renilla control light: higher = more constitutive control signal (cell number, transfection)
Hit rule: 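Across duplicate plates, a knock-down whose log firefly/Renilla ratio shifted a set fold down or up from the GFP/LacZ control mean was a hit; the downward cut appears as both 1.5 and 3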
Calls: active = hit: reporter lowered or raised; inactive = no hit

gene | amplicon | firefly reporter light, replicate 1 | firefly reporter light, replicate 2 | Renilla control light, replicate 1 | Renilla control light, replicate 2 | Call
CG12290 | DRSC14497 | 64173 | 84607 | 6.12e5 | 6.84e5 | inactive
CG12290 | DRSC28328 | 4.89e5 | 7.72e5 | 9.08e5 | 1.43e6 | inactive
CG15027 | DRSC19608 | 3.39e5 | 3.92e5 | 3.00e6 | 3.39e6 | inactive
wg (wingless) | DRSC03636 | 2.16e5 | 2.58e5 | 1.82e6 | 1.81e6 | inactive
wg (wingless) | DRSC29776 | 4.33e5 | 5.07e5 | 1.01e6 | 1.14e6 | inactive
Fmo-2 (Flavin-containing monooxygenase 2) | DRSC04983 | 6.19e5 | 4.81e5 | 1.21e6 | 1.19e6 | inactive
CG12116 | DRSC17812 | 2.51e5 | 3.69e5 | 2.93e6 | 2.89e6 | inactive
dpr5 (defective proboscis extension response 5) | DRSC15766 | 31163 | 66441 | 8.18e5 | 7.03e5 | inactive
dpr5 (defective proboscis extension response 5) | DRSC25239 | 4.57e5 | 4.03e5 | 5.73e5 | 6.07e5 | inactive
Mst57Da (Male-specific RNA 57Da) | DRSC16744 | 1.17e5 | 1.84e5 | 2.29e6 | 2.07e6 | inactive
Mob3 (MOB kinase activator 3) | DRSC02791 | 2.14e5 | 2.68e5 | 1.49e6 | 1.96e6 | inactive
wls (wntless) | DRSC10605 | 1.17e6 | 9.29e5 | 6.93e5 | 1.09e6 | inactive
wls (wntless) | DRSC29313 | 9.01e5 | 9.88e5 | 1.41e6 | 1.42e6 | inactive
CG6843 | DRSC10725 | 3.19e5 | 2.50e5 | 2.08e6 | 2.07e6 | inactive
CG6843 | DRSC29943 | 6.06e5 | 4.70e5 | 1.14e6 | 8.90e5 | inactive
CG15368 | DRSC23291 | 5.77e5 | 6.67e5 | 1.08e6 | 1.47e6 | inactive
CG15368 | DRSC25848 | 2.52e5 | 4.47e5 | 7.35e5 | 6.26e5 | inactive
CG18418 | DRSC08535 | 1.15e6 | 6.18e5 | 1.58e6 | 7.97e5 | inactive
CG18418 | DRSC25732 | 9.35e5 | 9.53e5 | 1.00e6 | 7.72e5 | inactive
Cdlc2 (Cytoplasmic dynein light chain 2) | DRSC00743 | 6.97e5 | 5.55e5 | 1.62e6 | 1.49e6 | inactive
Cdlc2 (Cytoplasmic dynein light chain 2) | DRSC24865 | 7.75e5 | 9.21e5 | 8.61e5 | 8.68e5 | inactive
CG34229 | DRSC06316 | 2.70e5 | 2.48e5 | 1.83e6 | 2.01e6 | inactive
CG5346 | DRSC15778 | 3.02e5 | 2.55e5 | 2.56e6 | 3.38e6 | inactive
CG5346 | DRSC26107 | 3.71e5 | 3.75e5 | 1.11e6 | 1.08e6 | inactive
CG5346 | DRSC39072 | 2.78e5 | 3.21e5 | 7.61e5 | 1.02e6 | inactive

Part of the list above, set out differently.
{"gene":"CG6843","amplicon":"DRSC29943","firefly reporter light, replicate 1":6.06e5,"firefly reporter light, replicate 2":4.70e5,"Renilla control light, replicate 1":1.14e6,"Renilla control light, replicate 2":8.90e5,"Call":"inactive"}
{"gene":"CG15368","amplicon":"DRSC23291","firefly reporter light, replicate 1":5.77e5,"firefly reporter light, replicate 2":6.67e5,"Renilla control light, replicate 1":1.08e6,"Renilla control light, replicate 2":1.47e6,"Call":"inactive"}
{"gene":"CG15368","amplicon":"DRSC25848","firefly reporter light, replicate 1":2.52e5,"firefly reporter light, replicate 2":4.47e5,"Renilla control light, replicate 1":7.35e5,"Renilla control light, replicate 2":6.26e5,"Call":"inactive"}
{"gene":"CG18418","amplicon":"DRSC08535","firefly reporter light, replicate 1":1.15e6,"firefly reporter light, replicate 2":6.18e5,"Renilla control light, replicate 1":1.58e6,"Renilla control light, replicate 2":7.97e5,"Call":"inactive"}
{"gene":"CG18418","amplicon":"DRSC25732","firefly reporter light, replicate 1":9.35e5,"firefly reporter light, replicate 2":9.53e5,"Renilla control light, replicate 1":1.00e6,"Renilla control light, replicate 2":7.72e5,"Call":"inactive"}
{"gene":"Cdlc2 (Cytoplasmic dynein light chain 2)","amplicon":"DRSC00743","firefly reporter light, replicate 1":6.97e5,"firefly reporter light, replicate 2":5.55e5,"Renilla control light, replicate 1":1.62e6,"Renilla control light, replicate 2":1.49e6,"Call":"inactive"}

Next reagents follow:
gene | amplicon | firefly reporter light, replicate 1 | firefly reporter light, replicate 2 | Renilla control light, replicate 1 | Renilla control light, replicate 2 | Call
Grip71 | DRSC02042 | 1.70e5 | 1.09e5 | 1.28e6 | 1.08e6 | inactive
CG33506 | DRSC05981 | 6.05e5 | 8.58e5 | 1.83e6 | 2.15e6 | inactive
mdlc (midlife crisis) | DRSC15690 | 93177 | 79587 | 5.06e5 | 5.97e5 | inactive
mdlc (midlife crisis) | DRSC28632 | 3.78e5 | 3.24e5 | 1.58e6 | 1.43e6 | inactive
Muc26B (Mucin 26B) | DRSC02322 | 2.69e5 | 1.79e5 | 2.30e6 | 1.85e6 | inactive
Muc26B (Mucin 26B) | DRSC28140 | 5.26e5 | 4.39e5 | 2.28e6 | 1.61e6 | inactive
Muc26B (Mucin 26B) | DRSC39082 | 4.65e5 | 1.92e5 | 1.57e6 | 5.73e5 | inactive
CG42383 | DRSC21733 | 5.06e5 | 4.21e5 | 2.49e6 | 2.24e6 | inactive
CG8778 | DRSC07264 | 2.22e5 | 1.75e5 | 1.60e6 | 1.42e6 | inactive
CG12316 | DRSC09879 | 6.84e5 | 8.42e5 | 1.02e6 | 1.37e6 | inactive
CG12316 | DRSC27599 | 3.96e5 | 2.45e5 | 4.53e5 | 3.92e5 | inactive
Brca2 (BRCA2, DNA repair associated) | DRSC04219 | 3.71e5 | 3.11e5 | 1.91e6 | 1.82e6 | inactive
Brca2 (BRCA2, DNA repair associated) | DRSC04220 | 3.79e5 | 2.77e5 | 1.86e6 | 1.35e6 | inactive
DUBAI + Tmem18 | DRSC05344 | 1.29e5 | 1.70e5 | 2.92e5 | 4.11e5 | inactive
CG30091 | DRSC21809 | 5.40e5 | 4.75e5 | 2.63e6 | 2.20e6 | inactive
CG30091 | DRSC27799 | 3.01e5 | 3.10e5 | 5.92e5 | 7.39e5 | inactive
trem (trade embargo) | DRSC15575 | 2.30e5 | 1.40e5 | 2.35e6 | 2.11e6 | inactive
CG7548 | DRSC10874 | 1.42e5 | 1.55e5 | 1.96e6 | 1.69e6 | inactive
CG7548 | DRSC29043 | 6.09e5 | 7.20e5 | 1.76e6 | 1.35e6 | inactive
CG9517 (retired record) | DRSC20192 | 5.90e5 | 5.92e5 | 3.78e6 | 3.29e6 | inactive
CG9517 (retired record) | DRSC20193 | 2.15e5 | 2.73e5 | 1.91e6 | 2.00e6 | inactive
CG9517 (retired record) | DRSC23550 | 7.18e5 | 7.64e5 | 7.42e5 | 1.02e6 | inactive
CG32026 | DRSC08950 | 1.60e5 | 2.02e5 | 4.97e5 | 4.83e5 | inactive
CG32026 | DRSC27384 | 2.91e5 | 2.95e5 | 4.68e5 | 5.39e5 | inactive
CG33965 | DRSC37791 | 2.47e5 | 2.55e5 | 7.46e5 | 6.75e5 | inactive
Rpn3 (Regulatory particle non-ATPase 3) | DRSC03318 | 1.64e5 | 1.51e5 | 1.92e6 | 1.43e6 | inactive
Rpn3 (Regulatory particle non-ATPase 3) | DRSC29446 | 2.83e5 | 3.95e5 | 5.43e5 | 5.43e5 | inactive
lt (light) | DRSC03759 | 3.89e5 | 5.34e5 | 1.72e6 | 1.72e6 | inactive
Frq2 (Frequenin 2) | DRSC20245 | 7.73e5 | 7.56e5 | 4.04e6 | 3.70e6 | inactive
Frq2 (Frequenin 2) | DRSC26037 | 3.28e5 | 3.08e5 | 8.16e5 | 7.62e5 | inactive
Eip74EF (Ecdysone-induced protein 74EF) | DRSC11160 | 89522 | 36634 | 9.23e5 | 6.34e5 | inactive
Eip74EF (Ecdysone-induced protein 74EF) | DRSC23794 | 8.83e5 | 5.70e5 | 8.90e5 | 6.06e5 | inactive
CG33332 | DRSC15504 | 97051 | 1.36e5 | 1.97e6 | 1.18e6 | inactive
CG33332 | DRSC27661 | 3.50e5 | 3.30e5 | 3.64e5 | 6.53e5 | inactive
Gyg (Glycogenin) | DRSC03850 | 81744 | 90309 | 3.60e5 | 3.55e5 | inactive
Gyg (Glycogenin) | DRSC04556 | 3.61e5 | 3.81e5 | 2.96e6 | 2.37e6 | inactive
Gyg (Glycogenin) | DRSC28959 | 6.89e5 | 4.60e5 | 1.35e6 | 1.44e6 | inactive
CG31735 | DRSC01518 | 1.92e5 | 1.74e5 | 4.00e5 | 4.65e5 | inactive
CG31735 | DRSC30072 | 8.70e5 | 7.01e5 | 1.84e6 | 1.42e6 | inactive
CG1146 | DRSC08189 | 7.14e5 | 5.16e5 | 1.12e6 | 8.95e5 | inactive
CG1146 | DRSC25486 | 8.72e5 | 9.04e5 | 9.54e5 | 8.59e5 | inactive
JhI-21 (Juvenile hormone Inducible-21) | DRSC02161 | 5.05e5 | 6.51e5 | 1.39e6 | 2.07e6 | inactive
JhI-21 (Juvenile hormone Inducible-21) | DRSC29181 | 5.08e5 | 3.66e5 | 1.53e6 | 1.64e6 | inactive
CG9822 | DRSC04568 | 2.62e5 | 2.92e5 | 1.40e6 | 1.75e6 | inactive
CG11756 | DRSC19424 | 4.76e5 | 4.46e5 | 3.36e6 | 3.61e6 | inactive
CG11756 | DRSC30076 | 9.39e5 | 9.19e5 | 1.43e6 | 9.90e5 | inactive
Ama (Amalgam) | DRSC12489 | 72413 | 58038 | 4.85e5 | 4.32e5 | inactive
CG14566 | DRSC11727 | 1.85e5 | 1.78e5 | 1.83e6 | 1.80e6 | inactive
CG14566 | DRSC25467 | 7.17e5 | 9.34e5 | 5.97e5 | 6.15e5 | inactive
